The structures appear in SMILES notation. This is one part of the list. These are further read-outs of the screen, such as a control signal, another cell line or another target. No call is given for them. The list favours compounds with an active or inconclusive main result. Words in brackets tell the shape of the fitted curve; partial curves, single points and poor fits give uncertain potencies.

The nature of the first experiment: qHTS Assay for Modulators of Human Peripheral Myelin Protein 22 (PMP22) Expression/Activity (AID 1967). Conditions: Cell-based PMP22 reporter, dual-color luciferase ratio; measured here: green reporter channel AC50; mouse Pmp22 promoter in mouse Schwann cells. The gist of the method: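 Luminescence ratio of Pmp22 promoter-driven green luciferase to EF-alpha-driven red luciferase, in engineered mouse MSC80 Schwann cells, served as read-out. Compounds were incubated 24h; untreated cells defined 0% Activity; curves were classified by r2, magnitude and activity.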
Background: Quantitative high-throughput screening tests each substance at several concentrations.
Consider `O=C(O)c1ccccc1Nc1ccccc1`, for which the half-maximal activity concentration (AC50) is 5.36 µM [rising, full curve, poor fit].

On to `CCOC(=O)Nc1ccc(NCc2ccc(F)cc2)nc1N`, for which the concentration at half-maximal activity (AC50) is 84.9 µM [falling, single point].

Regarding `N.N.N.N.N.N.N.N.N.N.N.N.N.N.O.O.[Cl-].[Cl-].[Cl-].[Cl-].[Cl-].[Cl-].[Ru].[Ru].[Ru]`, the concentration at half-maximal activity (AC50) was 60.1 µM [falling, partial curve].

In the case of `Nc1nc(SCc2ccc([N+](=O)[O-])cc2)c2ncn([C@@H]3O[C@H](CO)[C@H](O)[C@H]3O)c2n1`, the AC50 was 95.3 µM [falling, partial curve, poor fit].

The same experiment, now with this note: Cell-based PMP22 reporter, dual-color luciferase ratio; measured here: red reporter channel AC50; EF-alpha promoter control reporter in MSC80 mouse Schwann cells.
Take `CCN1CCc2nc(N)oc2CC1`: the AC50 was 84.9 µM [falling, single point].

`CC(C)C1NC(=O)[C@H](CCCCN)NC(=O)[C@@H](Cc2c[nH]c3ccccc23)NC(=O)[C@H](Cc2ccc(O)cc2)NC(=O)[C@H](C)N(C)C(=O)[C@H](Cc2ccccc2)NC1=O` (some centres undefined): the AC50 was 84.9 µM [falling, single point].

Take `NCCNC(=O)c1ccc(Cl)cc1`: the AC50 is 84.9 µM [falling, single point].

On to `CN(C)CCOC(=O)COc1ccc(Cl)cc1`, for which the AC50 is 95.3 µM [falling, single point].

On to `N#C/C(=C\c1ccc(O)c(O)c1)C(=O)c1ccc(O)c(O)c1`, for which the AC50 was 60.1 µM [falling, partial curve].

On to `CCNC(=O)[C@H]1O[C@@H](n2cnc3c(N)nc(NCCc4ccc(CCC(=O)O)cc4)nc32)[C@H](O)[C@H]1O`, for which the AC50 is 0.601 µM [rising, partial curve].

`COc1ccc2c(c1OC)C(=O)OC2C1c2c(cc3c(c2OC)OCO3)CCN1C` (centres undefined): the concentration at half-maximal activity (AC50) was 67.5 µM [falling, partial curve, poor fit].

Consider `Cc1ccc([N+](=O)[O-])cc1S(=O)(=O)N(C)C`, for which the AC50 was 95.3 µM [falling, single point].

In the case of `C[C@H]1CC2[C@@H]3CCC4=CC(=O)C=C[C@]4(C)[C@@]3(F)[C@@H](O)C[C@]2(C)[C@@]1(O)C(=O)CO` (some centres undefined), the AC50 is 75.7 µM [falling, single point].

For the compound `COc1ccccc1N1CCN(CCCNc2c(C)c(=O)n(C)c(=O)n2C)CC1`, the concentration at half-maximal activity (AC50) was 19 µM [rising, partial curve].

With `Cc1cc2c(cc1Cl)N(C(=O)Nc1ccnc3ccccc13)CC2`, the concentration at half-maximal activity (AC50) is 8.49 µM [falling, full curve, poor fit].

Turning to `CCN1/C(=C/C(C)=O)Sc2ccc(OC)cc21`, the AC50 is 67.5 µM [falling, partial curve].

With `CCN(CC)CCNC(=O)c1ccc(N)cc1`, the AC50 was 37.9 µM [rising, single point].

In the case of `CC(=O)NNC(=O)N1Cc2ccccc2Oc2ccc(Cl)cc21`, the half-maximal activity concentration (AC50) is 1.07 µM [rising, full curve, poor fit].

Take `O=c1[nH]c(=O)c2nc3ccccc3nc2[nH]1`: the AC50 is 30.1 µM [rising, single point].

As to `Cc1nc(N=Nc2ccc(C(=O)O)cc2)c(COP(=O)(O)O)c(C=O)c1O`, the AC50 was 84.9 µM [falling, single point].

`Cc1ccccc1N1C(=O)c2cc(S(N)(=O)=O)c(Cl)cc2NC1C` (centres undefined): the concentration at half-maximal activity (AC50) was 42.6 µM [falling, partial curve].

Turning to `C[C@H](CS)C(=O)N1CCC[C@H]1C(=O)O`, the AC50 was 84.9 µM [falling, single point].

As to `CCN(CC)CCOCCOC(=O)C1(c2ccccc2)CCCC1`, the AC50 was 84.9 µM [falling, single point].

With `O=C(O)C1CCNCC1`, the concentration at half-maximal activity (AC50) was 95.3 µM [falling, single point].

Take `NC(N)=[N+]1CCc2ccccc2C1`: the AC50 is 26.9 µM [rising, single point].

As for `N[C@@H](CCC(=O)N[C@H](CSN=O)C(=O)NCC(=O)O)C(=O)O`, the half-maximal activity concentration (AC50) is 95.3 µM [falling, single point].

On to `CCCn1c(=O)c2[nH]c(-c3ccc(OCC(=O)Nc4ccc(C#N)cc4)cc3)nc2n(CCC)c1=O`, for which the concentration at half-maximal activity (AC50) is 95.3 µM [falling, single point].

For `Cc1cn([C@H]2C[C@@H](N=[N+]=[N-])[C@@H](CO)O2)c(=O)[nH]c1=O`, the AC50 was 47.8 µM [falling, partial curve, poor fit].

`O=C(O)CN(CCN(CC(=O)O)CC(=O)O)CCN(CC(=O)O)CC(=O)O`: the AC50 is 95.3 µM [falling, single point].

One may read the AC50 as the concentration giving half of the maximal activity seen.
